Laboratory results reported in US20080090303A1.
These are yes or no findings as the source states them, for the method shown.

Molecular target: Keyhole Limpet Hemocyanin
Assay: ELISA; laydown conjugate of thiolated S1P with carrier and crosslinker exchanged (BSA/KLH, SMCC/IOA)

B1: murine anti-S1P monoclonal antibody Sphingomab (hybridoma clone 306D326.26, ATCC SD-5362) (antibody, mouse IgG1, V domains shown)
VH: QAHLQQSDAELVKPGASVKISCKVSGFIFIDHTIHWMKQRPEQGLEWIGCISPRHDITKYNEMFRGKATLTADKSSTTAYIQVNSLTFEDSAVYFCARGGFYGSTIWFDFWGQGTTLTVS
VL: ETTVTQSPASLSMAIGEKVTIRCITTTDIDDDMNWFQQKPGEPPNLLISEGNILRPGVPSRFSSSGYGTDFLFTIENMLSEDVADYYCLQSDNLPFTFGSGTKLEIK
**Q.** For B1, which binding is on record?
**A.** no binding
